# Data from paper PMC3870299, “Comparative genomics and functional analysis of rhamnose catabolic pathways and regulons in bacteria” (Frontiers in Microbiology, 2013).
# Construct, isoform or probe ends are uncertain for at least one entry. Negatives hold for the conditions tested. Where a protein sequence is shown, tags need not be part of it.
# Target: T1, RhaR (DeoR family) (Chloroflexus aurantiacus J-10-fl) (UniProt A9WGG7)
# T1 sequence (looked up, limits assumed): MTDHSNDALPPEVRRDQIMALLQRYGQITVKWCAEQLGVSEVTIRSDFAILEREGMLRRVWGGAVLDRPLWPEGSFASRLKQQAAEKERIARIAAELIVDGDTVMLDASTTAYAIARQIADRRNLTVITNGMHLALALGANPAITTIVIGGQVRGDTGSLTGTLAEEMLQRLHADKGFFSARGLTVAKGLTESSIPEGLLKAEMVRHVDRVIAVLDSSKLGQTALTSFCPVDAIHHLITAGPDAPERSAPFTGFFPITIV
# Assay: EMSA
# Conditions: EMSA: 50 mM Tris-HCl pH 8.0, 150 mM NaCl, 5 mM MgCl2, 1 mM DTT (printed DDT), 0.05% NP-40, 2.5% glycerol, 1 ug poly(dI-dC), 0.2 nM DNA, 20 ul, 25 min at 50 C, recombinant protein, protein details: His6-Smt3 (SUMO) N-terminal tag, cleaved with Ulp1
sequence,measurement,setting,value
GGCAGGCATCCGTAGAGCGCTCTACGATAACGATTTGGCAAAACTTTACCGTATCTTTAATCTCTGATCACATTTATTCGCTATTGTGAAAATATCCACAGTGCAATGGTTTGACACAGATACGCGGCGCAGCCTATAATCGAAGCATCCGCAATGTAAGCACCCCGCCGCATGGATTCGTAACAAGGAGGTTCGACACA (double strand) [Caur_0003 upstream 200-bp fragment],binding result,"RhaR 0.5 uM, negative control",no binding
GGGGGTTCGTAAAATCTCGTAAGTACTTGACAAATCTTGAAAAGGGGG (double strand) [rhaR upstream 48-bp fragment (38-bp RhaR operator)],binding result,"RhaR 1 uM, 2 mM L-rhamnulose (binding abolished)",no binding
